The values are deposited in ChEMBL (CHEMBL3988442, “University of Dundee, Small-Polar-MMV Screening Library” (2021)).

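Phenotypic screen: M. tuberculosis growth, glucose 7H9 medium, 3 days; the read-out is not stated. Compounds at 50 µM. The record gives no direction; compounds that gave an IC50 in retests scored well above the rest, so higher reads as more growth inhibition. Size under these conditions: about 69,000 compounds, about 760 of them at 50% or above in at least one test.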

Values are the deposited “Percent Effect”, in %. The controls that fix the scale are not given in the record; negative values are as filed. Compounds were drawn at random from those tested, without regard to their results. Two or more numbers in one place are separate tests of the same structure; such repeats can differ widely.

For CNc1nc(C)c(-c2nc(-c3c(C)ncc4c3CCNC4)no2)s1 the result was -22.7%. Cc1ccc(-c2cc(CNCCn3cc(C)cn3)on2)cc1 gave 24.83% & 31.25%. Result for CC(C)Nc1ncnc2c1CCN(C(=O)CN(C)C)CC2 was -58.2%. O=C(c1ccc(N2CCCC2)nc1)N1CCCC(c2nccs2)C1 (configuration not stated) gave 2.999%. With CC/N=c1\nc(NCC)nc2n1C(O)(Nc1cc(C)ccc1C)CS2 (configuration not stated) the screen gave 19.44%.

With O=C(Cc1csc(N2CCNC2=O)n1)NC(c1ccccc1)C1CC1 (configuration not stated) the screen gave -42.12%. [H][C@]12CCN(C(C)=O)[C@@]1([H])CC[C@H](COCc1csc(C)n1)O2 gave -29.98%. With CNc1cc2c(nn1)CCN(C(=O)c1ccc3c(c1)CCC3)C2 the screen gave 4.884%. Result for CN(Cc1nnc(-c2cccs2)o1)C(C(N)=O)c1cccc(F)c1 (configuration not stated) was -9.696%. COc1cccc(-c2cc(C3CCCNC3)ccn2)c1 (configuration not stated) read 30.6%.

CC(=O)NCC(=O)N1Cc2ccnn2CC(COCCN(C)C)C1 (configuration not stated) read -0.5533% & 23.65%. N#Cc1cccc(N2CCCC3(C2)CN(c2nncs2)CCO3)c1 (configuration not stated) read -9.736% & -32.2%. CCOC(=O)Cn1cccc(S(=O)(=O)N2CCCC2)c1=O gave -13.29%. With COc1ccc(CN2CCOC[C@H](OCc3ccccc3)C2)cc1 the screen gave 26.03% & 17.56%. Result for [H][C@@]12C[C@H](C(=O)NCC(C)C)[C@@]([H])(CN(C(=O)Nc3ccc(F)cc3)C1)O2 was -7.307%.

[H][C@@]12CCN(c3ccc(C)nn3)C[C@]1(C(=O)N1CCCO1)CCO2 read 15.2%. With CCn1nc(C)c(CCNC(=O)c2cccc(-n3cccn3)c2)c1C the screen gave -19.04%. CCc1ccc(C(COC)NC(=O)c2ccc(NC(C)=O)cc2)o1 (configuration not stated) read 30.33%. O=C(O)C(F)(F)F.O=C(O)C(F)(F)F.O=C(O)C(F)(F)F.[H][C@@]12CN(Cc3cccnc3)C[C@]1([H])[C@H](OC)CCN2c1ncc(F)cn1 gave 4.668% & -3.898%. c1cnc(N2CCCn3c(nnc3Cn3cccn3)C2)nc1 gave -2.194% & 2.977%.

With [H][C@]12CC[C@]([H])(CN(C(=O)N(C)C)C1)N(C(=O)c1cccc(N(C)C)c1)C2 the screen gave -8.549%. With O=C(c1cncs1)N1CCC(Cc2cnc3[nH]ccc3c2)CC1 the screen gave -9.235%. Cc1cc(C(=O)N2CCc3nc(C4CCCN4)ncc3C2)cs1.Cl (configuration not stated) gave -11.09%. With COc1cccn(CC(=O)N(C)Cc2ccoc2)c1=O the screen gave 9.311%. Result for COC1CCN(CCNC(=O)C2CCCCC2)CC1 was 9.136% & -0.9958%.

Cc1ccc(CN2CCC3(CC2)CC(c2cccnc2)C(=O)N3C)o1.O=C(O)C(F)(F)F.O=C(O)C(F)(F)F (configuration not stated) read 7.634%. With [H][C@@]12C[C@@H](OC)C[C@]1([H])CN(C(=O)Cc1ccc(C)s1)C2 the screen gave 16.96%. COc1cccc(C(=O)N2CCc3c(nc(N)[nH]c3=O)C2)c1C read 13.03%. Result for CC(C)CSCCN1CCN(S(C)(=O)=O)CC1 was 18.74%. For COC(=O)CCCNC(=O)c1cc(COc2cncc(Cl)c2)on1 the result was 8.933%.

Result for Cn1cccc1C(=O)OCCNC(=O)c1ccccc1 was 7.614%. For Cc1cc(N2CCC(Cc3ccccc3)CC2)ncn1 the result was 11.19% & 20.81%. For O=C(O)C(F)(F)F.[H][C@@]12CN(C(=O)c3ccco3)C[C@]1([H])OCCN2c1ncccn1 the result was -6.718%. For Cc1ncc2c(n1)CN(Cc1nc(-c3ccco3)oc1C)CC2 the result was -16.92%.

Repeated from the top, 3 entries:

compound	Percent Effect
CNc1nc(C)c(-c2nc(-c3c(C)ncc4c3CCNC4)no2)s1	-22.7%
Cc1ccc(-c2cc(CNCCn3cc(C)cn3)on2)cc1	24.83% & 31.25%
CC(C)Nc1ncnc2c1CCN(C(=O)CN(C)C)CC2	-58.2%